Test results: publication PMC5557939

Sequences of proteins named here, by UniProt entry; tags and fusion partners are left off.
UniProt Q5SVQ0: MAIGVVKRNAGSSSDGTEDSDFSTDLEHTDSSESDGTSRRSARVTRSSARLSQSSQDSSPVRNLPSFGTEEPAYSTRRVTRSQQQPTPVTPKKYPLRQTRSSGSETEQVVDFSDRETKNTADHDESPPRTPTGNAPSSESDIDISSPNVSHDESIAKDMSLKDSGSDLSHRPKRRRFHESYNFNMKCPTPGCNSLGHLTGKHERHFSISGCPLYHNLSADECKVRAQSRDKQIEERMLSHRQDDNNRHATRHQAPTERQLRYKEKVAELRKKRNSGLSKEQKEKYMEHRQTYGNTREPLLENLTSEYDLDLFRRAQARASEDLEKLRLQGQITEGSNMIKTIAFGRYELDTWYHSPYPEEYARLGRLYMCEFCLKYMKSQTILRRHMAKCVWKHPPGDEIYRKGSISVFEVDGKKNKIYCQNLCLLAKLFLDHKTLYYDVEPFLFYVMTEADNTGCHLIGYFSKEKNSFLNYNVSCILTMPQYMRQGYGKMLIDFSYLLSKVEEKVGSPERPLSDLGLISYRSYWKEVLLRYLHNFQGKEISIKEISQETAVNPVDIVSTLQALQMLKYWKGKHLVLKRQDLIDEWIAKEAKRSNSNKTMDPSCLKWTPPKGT
UniProt Q8C0D7: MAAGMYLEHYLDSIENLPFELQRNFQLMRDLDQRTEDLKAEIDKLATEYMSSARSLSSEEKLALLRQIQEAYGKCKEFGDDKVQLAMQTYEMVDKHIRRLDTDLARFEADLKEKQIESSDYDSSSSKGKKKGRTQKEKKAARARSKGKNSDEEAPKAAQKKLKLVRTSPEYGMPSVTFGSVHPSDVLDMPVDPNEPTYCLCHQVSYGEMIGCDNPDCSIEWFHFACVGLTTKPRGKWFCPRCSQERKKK
UniProt Q6ZQF7: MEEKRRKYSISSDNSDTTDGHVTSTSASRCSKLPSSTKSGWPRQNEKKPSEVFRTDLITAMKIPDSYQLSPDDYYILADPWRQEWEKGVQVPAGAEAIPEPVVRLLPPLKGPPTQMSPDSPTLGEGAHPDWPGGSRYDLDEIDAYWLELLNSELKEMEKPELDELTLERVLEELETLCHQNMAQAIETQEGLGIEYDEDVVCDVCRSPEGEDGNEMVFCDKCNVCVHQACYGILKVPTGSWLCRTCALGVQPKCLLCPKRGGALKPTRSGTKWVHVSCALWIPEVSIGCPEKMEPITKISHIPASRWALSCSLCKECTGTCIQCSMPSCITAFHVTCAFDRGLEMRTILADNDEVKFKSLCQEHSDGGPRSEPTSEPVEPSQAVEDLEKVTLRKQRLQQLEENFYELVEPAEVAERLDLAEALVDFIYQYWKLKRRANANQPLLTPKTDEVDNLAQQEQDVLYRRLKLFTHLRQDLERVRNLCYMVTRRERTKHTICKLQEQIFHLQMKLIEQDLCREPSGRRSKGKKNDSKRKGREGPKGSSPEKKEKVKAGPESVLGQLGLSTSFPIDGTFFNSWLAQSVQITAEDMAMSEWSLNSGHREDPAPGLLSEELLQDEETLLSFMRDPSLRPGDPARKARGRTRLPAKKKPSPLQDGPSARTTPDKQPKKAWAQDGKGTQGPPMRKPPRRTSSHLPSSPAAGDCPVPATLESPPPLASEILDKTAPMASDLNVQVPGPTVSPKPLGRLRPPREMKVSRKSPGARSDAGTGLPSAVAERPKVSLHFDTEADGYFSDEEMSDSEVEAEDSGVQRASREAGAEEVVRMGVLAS
UniProt B2KF05: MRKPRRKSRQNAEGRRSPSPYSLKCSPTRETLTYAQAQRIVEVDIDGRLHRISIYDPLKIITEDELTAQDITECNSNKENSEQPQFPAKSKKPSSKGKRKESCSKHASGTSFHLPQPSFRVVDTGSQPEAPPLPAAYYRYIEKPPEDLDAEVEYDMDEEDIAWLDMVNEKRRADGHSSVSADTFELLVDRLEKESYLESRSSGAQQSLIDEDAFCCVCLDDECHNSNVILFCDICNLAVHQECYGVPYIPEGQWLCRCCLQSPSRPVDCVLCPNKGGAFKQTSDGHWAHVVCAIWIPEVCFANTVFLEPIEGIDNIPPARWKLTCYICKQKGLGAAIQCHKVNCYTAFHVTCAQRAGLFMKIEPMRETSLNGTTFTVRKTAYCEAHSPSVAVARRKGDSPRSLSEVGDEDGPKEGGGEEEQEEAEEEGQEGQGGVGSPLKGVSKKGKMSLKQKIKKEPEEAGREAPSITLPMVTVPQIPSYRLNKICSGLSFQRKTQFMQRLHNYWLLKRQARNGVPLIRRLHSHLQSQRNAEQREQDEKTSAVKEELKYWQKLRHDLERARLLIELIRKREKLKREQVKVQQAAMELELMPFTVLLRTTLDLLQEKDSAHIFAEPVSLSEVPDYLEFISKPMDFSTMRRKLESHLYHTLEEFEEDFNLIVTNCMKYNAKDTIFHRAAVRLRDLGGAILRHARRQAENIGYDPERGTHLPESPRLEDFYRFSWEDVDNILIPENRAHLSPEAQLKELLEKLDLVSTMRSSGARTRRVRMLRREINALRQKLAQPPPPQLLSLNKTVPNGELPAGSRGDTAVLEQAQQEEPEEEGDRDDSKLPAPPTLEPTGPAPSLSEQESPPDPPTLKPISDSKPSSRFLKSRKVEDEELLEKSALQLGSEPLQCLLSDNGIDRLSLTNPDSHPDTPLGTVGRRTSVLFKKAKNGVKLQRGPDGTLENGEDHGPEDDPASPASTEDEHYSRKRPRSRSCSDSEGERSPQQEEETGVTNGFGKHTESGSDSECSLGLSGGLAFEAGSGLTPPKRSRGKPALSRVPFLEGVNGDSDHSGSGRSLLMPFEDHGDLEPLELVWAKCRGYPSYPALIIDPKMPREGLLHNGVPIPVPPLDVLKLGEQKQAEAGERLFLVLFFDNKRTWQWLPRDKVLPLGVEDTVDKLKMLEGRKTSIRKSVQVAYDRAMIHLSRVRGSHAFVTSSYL
UniProt Q9D8Y8: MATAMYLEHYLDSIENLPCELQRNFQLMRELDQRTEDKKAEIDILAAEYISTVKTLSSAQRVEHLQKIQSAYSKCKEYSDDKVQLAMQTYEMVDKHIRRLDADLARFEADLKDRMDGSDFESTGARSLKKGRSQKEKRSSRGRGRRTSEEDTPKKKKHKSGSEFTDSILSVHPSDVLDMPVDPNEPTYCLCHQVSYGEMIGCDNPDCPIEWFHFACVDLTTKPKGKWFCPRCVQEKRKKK

How the values were obtained:
Myst2-FTAP (mouse) [1] = molecular target: Myst2-FTAP (mouse) (UniProt Q5SVQ0); experiment: affinity purification with mass spectrometry; single FLAG immunoprecipitation of Myst2-FTAP complexes, native eluate fractionated by blue native PAGE, 48 fractions, quantitative mass spectrometry, hierarchical clustering of migration profiles (ABC-MS)
Myst2-FTAP (mouse) [2] = molecular target: Myst2-FTAP (mouse) (UniProt Q5SVQ0); experiment: affinity purification with mass spectrometry; tandem affinity purification (TAP) of Myst2-FTAP from whole cell extracts of 10e9 mouse ESCs, high salt lysis buffer (450 mM NaCl); TEV eluate on calmodulin resin, EGTA elution; three replicates; control beta-gal-FTAP

| Molecule | binding (Myst2-FTAP (mouse) [1]) | binding (Myst2-FTAP (mouse) [2]) |
| --- | --- | --- |
| Ing4 (from UniProt Q8C0D7 1-249) | binds | binds |
| Phf15 (from UniProt Q6ZQF7 1-829) | binds | binds |
| Phf16 (protein, UniProt Q6IE82 1-823) MKRHRPVSSSESSDECPSTSFTSSSMYRKKSKNPKEQKKSAEVFRKDLISAMKIPDSHHVNPDSYYLFTDTWKEEWEKGVQVPANPDSVPTPSLRIISEKVKEMLFVRPRKYIRCSSPESAEPGYINTLEQAASTCRYDLDDMDIFWLQELNEDLGEMGYGPIDETLMEKTIEVLERHCHENMNHAIETVEGLGIEYDEDVICDVCRSPDSEEGNDMVFCDKCNVCVHQACYGILKIPEGSWLCRSCVLGIYPQCVLCPKKGGAMKTTRTGTKWAHVSCALWIPEVSIACPERMEPVTKISHIPPSRWALVCNLCKLKTGACIQCSVKSCITAFHVTCAFEHGLEMKTILDEGDEVKFKSFCLKHSQNKPKLGDAEYHHHRVAEQSQAKSEKTSLRAQKLRELEEEFYTLVQVEDVAKEMELSAFTVDFIYNYWKLKRKSNFNKPLIPPKEEEENGLVQPKEESIHTRMRMFMHLRQDLERVRNLCYMISRREKLKLSHTKVQEQIFGLQVQLINEEITEGLSLTNALENSLFYPPPRITLKLKMPKSTSEDCKDSSTETEHQLSSPGSSSPGHSKRSPQMPEEPLDMNVKIYPRYPLESKSNCLQTSRSHSRCETKSSSPTPRAPSAEFYHGQSLGKPLALQAALHGQVSIGNGKNQPNSRVSSSNGLEGNWSGNITQKVNSSEVCYDQESMLSSHLPSPGNIRKSSMEHFSRSFKEATNTWVKPTEDLQYCVKPTKNVSSKEQLWGRQLLRRPTGRASYQETDGYCPDLEPSDSEAEGEGSKETPRVKRESSDRENPSHDSARECHGKTKTHPHSHSSMQR | binds | binds |

Second part, the molecule after the results:

| binding (Myst2-FTAP (mouse) [1]) | binding (Myst2-FTAP (mouse) [2]) | Molecule |
| --- | --- | --- |
| binds | binds | Brpf3 (from UniProt B2KF05 1-1204) |
| binds | binds | Ing5 (from UniProt Q9D8Y8 1-240) |
| binds | binds | Phf17 (from UniProt Q6ZPI0-1 1-834) |

No constants are given. Whether binding was seen depends on the method and setting. Binding seen in cells or lysates may run through a third protein. These calls come from enrichment with a bait or labelling near it, and not all partners need be listed.
